Values are relative to the signal before dosing, not to a vehicle control; the signal also falls without drug.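 Fibroblast labels denote human fibroblasts, mainly primary ones from uterus (C12385, HUF), lung (H6013), bone (Hs27A), adrenal (HADF) and skin (WS1), plus mammary HMF and breast cancer-associated Hs343T. Cancer cells are basal-like or mesenchymal-like triple-negative breast cancer lines. A hit is a response shift exceeding 3x replicate standard deviation. The tissue of the other fibroblasts is not given here.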
Tested on: MDAMB231
Experiment: relative JC-1 red fluorescence (viability) vs pre-drug, coculture with fibroblast (fraction); higher = more viable cancer cells
Details: 10 µM
Procedure: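 JC-1 labelled TNBC cells cocultured 1:1 (1,500 cells each) with CellTrace Violet stained primary or stromal fibroblasts in 384-well plates in FluoroBrite medium, treated with one of 42 anticancer drugs at 0.1, 1, 10 or 100 uM. JC-1 red fluorescence (mitochondrial integrity in cancer cells only) was read by plate reader every 8 h for 72 h. Values are normalised to each well's pre-drug value. The stock of one drug was tenfold lower, so its dose labels may be too high.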

CC(C)C[C@H](NC(=O)[C@@H](COC(C)(C)C)NC(=O)[C@H](Cc1ccc(O)cc1)NC(=O)[C@H](CO)NC(=O)[C@H](Cc1c[nH]c2ccccc12)NC(=O)[C@H](Cc1cnc[nH]1)NC(=O)[C@@H]1CCC(=O)N1)C(=O)N[C@@H](CCCNC(=N)N)C(=O)N1CCC[C@H]1C(=O)NNC(N)=O [Goserelin]
relative JC-1 red fluorescence
Details | 40 h | 48 h | 56 h | 64 h | 72 h
coculture fibroblast: C12385 | – | 0.588 | 0.546 | 0.545 | 0.529
coculture fibroblast: H6013 | – | 0.666 | 0.651 | 0.629 | 0.593
coculture fibroblast: H6019 | – | 0.521 | 0.4695 | 0.452 | 0.414
coculture fibroblast: H6076 | – | 0.603 | 0.562 | 0.542 | 0.538
coculture fibroblast: H6231 | – | 0.615 | 0.573 | 0.55 | 0.519
coculture fibroblast: HADF | – | 0.657 | 0.635 | 0.609 | 0.563
coculture fibroblast: HCFa | – | 0.662 | 0.645 | 0.616 | 0.58
coculture fibroblast: HCPF | – | 0.5978 | 0.5586 | 0.5238 | 0.508
coculture fibroblast: HHSteC | 0.69 | 0.652 | 0.607 | 0.58 | 0.542
coculture fibroblast: HMF | 0.649 | 0.618 | 0.573 | 0.552 | 0.524
coculture fibroblast: HPFa | 0.738 | 0.684 | 0.623 | 0.583 | 0.52
coculture fibroblast: HUF | 0.561 | 0.545 | 0.497 | 0.488 | 0.464
coculture fibroblast: Hs5 | 0.639 | 0.58 | 0.531 | 0.501 | 0.473
coculture fibroblast: Hs27A | 0.696 | 0.611 | 0.616 | 0.592 | 0.543
coculture fibroblast: Hs343T | 0.75 | 0.787 | 0.811 | 0.792 | 0.769
coculture fibroblast: WS1 | 0.545 | 0.517 | 0.46 | 0.436 | 0.409
